Experimental data taken from PubChem BioAssay AID2685 (National Center for Advancing Translational Sciences (NCATS), 2010).
This is one part of the list. These are further read-outs of the screen, such as a control signal, another cell line or another target. No call is given for them. Compounds called inactive in the main read-out are mostly missing here. Words in brackets tell the shape of the fitted curve; partial curves, single points and poor fits give uncertain potencies.

Assay: qHTS Assay for Lipid Storage Modulators in Drosophila S3 Cells;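 for cell number change: cells counted by Cell Tracker Red CMTPX staining in the red channel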
Conditions: BODIPY lipid droplet fluorescence, 18-24 h; for cell number change: measured here: cell count max response, cells fed with added oleic acid
Procedure, shortened: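 Drosophila S3 cells got compounds at several concentrations plus oleic acid (400 uM solution). Laser-scanning cytometry with 488 nm excitation read lipid droplets at 500-530 nm and cells at 575-640 nm. Percent activity was relative to 20 uM Triacsin C.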

[1] = measured here: lipid fluorescence (Fed channel) AC50, cells fed with added oleic acid
[2] = measured here: cell number channel AC50, cells fed with added oleic acid

SMILES	cell number change [%]	AC50 [1]	AC50 [2]
CCc1ccc(CN(C)Cc2nc(COc3ccccc3)no2)nc1	17.9	0.00461 µM [rising, full curve, poor fit]	–
CCOc1ccc(NC(=O)Cn2nnc(C(=O)NCc3ccc4c(c3)OCO4)c2N)cc1	17.3	29.1 µM [rising, single point]	–
N#CCOc1coc(CN2CCN(c3cccc(Cl)c3)CC2)cc1=O	11.3	–	–
COC(=O)c1cc(NC(=O)CN2CCc3cc4c(cc3C2)OCCCO4)cc(C(=O)OC)c1	-35	18.4 µM [falling, partial curve]	29.1 µM [falling, single point]
Cc1cccc(N2C(=O)SC(N(C)c3ccccc3)C2=O)c1 (centres undefined)	-1.43	–	–
O=C(CC1C(=O)NCCN1C(=O)c1ccc(F)cc1)OCc1ccccc1 (centres undefined)	5.75	–	–
CCCCCn1c(CN2CCN(CCO)CC2)nc2c1c(=O)n(C)c(=O)n2C	-79.2	–	29.1 µM [falling, single point]
FC(F)(F)c1ccc(Nc2nnnc3ccccc23)cc1	24.9	0.00461 µM [falling, full curve, poor fit]	–
COc1cccc(OC)c1OCCOc1ccc(C(=O)c2ccccc2)cc1	-17.5	11.6 µM [rising, partial curve]	–
Cc1ccccc1NC(=O)C(=Cc1ccc(C(=O)O)cc1)C(=O)Nc1ccccc1C	–	–	5.17 µM [rising, single point]
Cc1nnc(NC(=O)CSc2nc(C3CCCCC3)nc3ccccc23)s1	61.1	20.6 µM [rising, partial curve]	11.6 µM [rising, partial curve]
CSc1ncc(Cl)c(C(=O)NCc2ccc3c(c2)OCO3)n1	-33.2	–	20.6 µM [falling, single point]
COc1cc(-c2c(C#N)c(N)nc(SCc3ccncc3)c2C#N)cc(OC)c1OC	-23	3.66 µM [rising, single point]	–
CC(C)(C)N=C(NS(=O)(=O)c1cccs1)c1ccccc1	-5.25	3.26 µM [rising, full curve]	–
O=C(COc1ccc(Cl)cc1Cl)Nc1ccccn1	-39.2	0.291 µM [falling, single point]	9.2 µM [falling, partial curve]
COc1cccc(NS(=O)(=O)c2cc3c(cc2C)N(C(C)=O)CCO3)c1	17.9	–	–
Cc1cc(C)cc(NC(=O)c2cnn(-c3ccccc3)c2C2CCNCC2)c1	-44.5	–	5.17 µM [falling, partial curve]
COCc1[nH]nc2c1C1(CCSCC1)C(C#N)=C(N)O2	-5.08	25.9 µM [falling, partial curve]	–

Complete entries from above:
N#CCOc1coc(CN2CCN(c3cccc(Cl)c3)CC2)cc1=O is listed as cell number change [%]: 11.3
COc1cccc(NS(=O)(=O)c2cc3c(cc2C)N(C(C)=O)CCO3)c1 is listed as cell number change [%]: 17.9
